Consider one substance from article PMC7563118.

These are yes or no findings as the source states them, for the method shown. Binding seen in cells or lysates may run through a third protein. Binding can be weak; no strength is given. Where a sequence is shown, tags or fusion partners need not be part of it.

In experiment [1] the target is T1, GST-LASP1 (full length, wild type) (human) (UniProt Q14847).
T1 sequence: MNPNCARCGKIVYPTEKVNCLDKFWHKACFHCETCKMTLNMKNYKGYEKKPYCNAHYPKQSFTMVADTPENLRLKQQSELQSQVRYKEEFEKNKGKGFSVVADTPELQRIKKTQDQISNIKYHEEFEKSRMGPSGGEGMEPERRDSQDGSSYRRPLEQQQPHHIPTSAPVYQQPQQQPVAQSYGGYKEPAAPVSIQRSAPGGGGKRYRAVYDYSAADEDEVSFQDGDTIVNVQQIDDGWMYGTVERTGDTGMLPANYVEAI
As to the kind of experiment: pull-down; 1.5 nmol GST fusion on glutathione beads incubated overnight at 4 °C with 250 µg nuclear lysate of serum-starved, CXCL12-stimulated (20 nM) MDA-Bone-Un cells; 50 mM Tris-HCl pH 7.5, 0.05% Triton X-100, 100 mM NaCl; immunoblot of endogenous proteins; only the target purified.

For experiment [2], the target named is T2, GST-SH3 (C-terminal domain of LASP1) (human) (UniProt Q14847).
T2 sequence: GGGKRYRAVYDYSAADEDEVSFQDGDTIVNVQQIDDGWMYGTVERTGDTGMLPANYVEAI
Described as above.

Consider “Akt (Protein kinase B), endogenous (human (endogenous in MDA-Bone-Un))”, for which the binding entry in experiment [1] and in experiment [2] was “binds” in each case.
